Laboratory results from PubChem BioAssay AID1487 (National Center for Advancing Translational Sciences (NCATS), 2009).
The list shows a part of the results. Shown are side measurements of this screen, not its main read-out; they come without a call. Compounds called inactive in the main read-out are mostly missing here. The note in brackets gives the kind of curve behind each potency; many fits are weak.

Assay: qHTS Assay for Modulators of Lamin A Splicing
Conditions: HeLa LMNA splicing GFP/RFP minigene ratio, 48 h
How it was run: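 S3 HeLa stable clones carrying a lamin A-EGFP splicing minigene plus DsRed2 were seeded at 600 cells/well in Opti-MEM with 2% FBS, pin-dosed and incubated 48 h at 37°C. Acumen cytometry (488 nm) gave the GFP/RFP total-intensity ratio.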

[1] = measured here: GFP splicing reporter channel
[2] = measured here: RFP viability control channel

Row | Structure (SMILES) | AC50 [1] | AC50 [2]
1 | COc1ccccc1/C=C/C(=O)Nc1cccc(C(C)=O)c1 | 0.00562 µM [falling, full curve, poor fit] | –
2 | CCCCNC(=S)N/N=C1\CCCCc2ccccc21 | – | 35.5 µM [rising, single point]
3 | CCN(CC)S(=O)(=O)c1ccc(N/N=C/c2ccc(OC)c(OC)c2OC)nc1 | 3.98 µM [falling, full curve, poor fit] | 3.98 µM [falling, full curve, poor fit]
4 | COc1ccc(C2SCC(=O)N2c2nc3ccccc3s2)cc1 (stereo not given) | – | 0.562 µM [falling, partial curve, poor fit]
5 | C=CCN1CC2(c3ccccc3)CN(CC=C)CC(c3ccccc3)(C1)C2=O | 0.0224 µM [rising, full curve, poor fit] | 0.0224 µM [rising, full curve, poor fit]
6 | Cc1ccc2[nH]c3c(c2c1)CCC3=O | 2 µM [falling, full curve] | 1.26 µM [falling, full curve]
7 | COC(=O)C1=C(Nc2ccc(C)cc2)C=C(C)C(C(=O)OC)C1c1ccc(F)cc1 (stereo not given) | 35.5 µM [falling, single point] | 35.5 µM [falling, single point]
8 | CCOc1ccc(OC(=O)c2cccnc2)cc1 | – | 17.8 µM [rising, single point]
9 | CC(=O)Nc1ccc(Nc2c([N+](=O)[O-])cc(S(C)(=O)=O)cc2[N+](=O)[O-])cc1 | – | 22.4 µM [rising, partial curve]
10 | CCc1c(C(=O)N2CCN(c3ccccc3F)CC2)[nH]c(C)c1C(C)=O | – | 14.1 µM [rising, single point]
11 | COC(=O)c1sc2cccc(F)c2c1S(=O)(=O)N1CCN(c2ccccc2OC)CC1 | – | 11.2 µM [rising, partial curve, poor fit]
12 | COc1ccc(-c2cc3nc(-c4ccccc4)cc(N4CCC5(CC4)OCCO5)n3n2)cc1 | 35.5 µM [rising, single point] | –
13 | CC1CCN(C(=O)CN2CCSc3ccccc32)CC1 | 4.47 µM [rising, single point] | –
14 | COc1ccc(S(=O)(=O)N2CCN(C(=O)c3cccs3)CC2)cc1OC | – | 20 µM [rising, single point]
15 | CCC(=O)N1CCCc2cc(S(=O)(=O)N3CCC(C(=O)Nc4ccc(F)c(F)c4)CC3)ccc21 | 15.8 µM [falling, single point] | –
16 | O=C(CN1c2ccccc2S(=O)(=O)c2ccccc21)Nc1ccccc1Cl | 0.0355 µM [falling, full curve, poor fit] | 0.0282 µM [falling, full curve, poor fit]
17 | O=C(Cn1cnc2onc(-c3ccc(F)cc3)c2c1=O)Nc1ccc(F)c(Cl)c1 | 35.5 µM [falling, partial curve, poor fit] | 35.5 µM [falling, partial curve, poor fit]
18 | C[C@@]12C(=O)OC(=O)[C@@]1(C)C1CCC2O1 | 2.82 µM [falling, full curve] | 2.82 µM [falling, full curve]
19 | COc1cccc2sc(N(CCCN(C)C)C(=O)C(c3ccccc3)c3ccccc3)nc12 | 4.47 µM [falling, partial curve] | 3.16 µM [falling, partial curve]
20 | CN(C)/C=N/c1sc2c(c1C#N)CCCCC2 | 7.08 µM [rising, partial curve, poor fit] | 10 µM [rising, partial curve]
21 | CNC(=O)c1cc(C(=O)c2ccc(C(F)(F)F)cc2F)c[nH]1 | 0.158 µM [falling, single point] | –
22 | CCOc1ccc(Cl)cc1S(=O)(=O)N1CCN(c2ccc(C)c(C)c2)CC1 | – | 31.6 µM [rising, single point]
23 | Cc1ccc2nc(COc3ccccc3NC(=O)c3ccccc3F)cc(=O)n2c1 | 1.58 µM [rising, partial curve] | –
24 | Cc1ccc2c(c1)c(CC(=O)Nc1ccc(C)c(F)c1)c(C(=O)O)n2C | – | 25.1 µM [rising, single point]
25 | CC1CCN(c2ccc(NC(=O)c3ccccc3[N+](=O)[O-])cc2)CC1 | 1.78 µM [rising, full curve] | –
26 | Cc1oc(-c2cc(F)ccc2F)nc1CN1CCN(c2cnccn2)CC1 | 35.5 µM [falling, single point] | –
27 | Cn1c(=O)n(C)c2cc([N+](=O)[O-])c(N3CCN(S(=O)(=O)c4ccc5ccccc5c4)CC3)cc21 | – | 2.82 µM [rising, single point]

Looked up by structure from the list above, 5 records:
Row | Structure (SMILES) | AC50 [1] | AC50 [2]
9 | CC(=O)Nc1ccc(Nc2c([N+](=O)[O-])cc(S(C)(=O)=O)cc2[N+](=O)[O-])cc1 | – | 22.4 µM [rising, partial curve]
26 | Cc1oc(-c2cc(F)ccc2F)nc1CN1CCN(c2cnccn2)CC1 | 35.5 µM [falling, single point] | –
2 | CCCCNC(=S)N/N=C1\CCCCc2ccccc21 | – | 35.5 µM [rising, single point]
20 | CN(C)/C=N/c1sc2c(c1C#N)CCCCC2 | 7.08 µM [rising, partial curve, poor fit] | 10 µM [rising, partial curve]
12 | COc1ccc(-c2cc3nc(-c4ccccc4)cc(N4CCC5(CC4)OCCO5)n3n2)cc1 | 35.5 µM [rising, single point] | –

(listing goes on)

Row | Structure (SMILES) | AC50 [1] | AC50 [2]
28 | CCOC(=O)N1CCN(Cc2nc3cc(NC(=O)C(C)C)ccc3n2C(C)C)CC1 | – | 2.51 µM [rising, full curve, poor fit]
29 | Cc1ccc(-c2csc(NC(=O)CCNC(=O)c3ccccc3Cl)n2)cc1 | 31.6 µM [rising, single point] | 28.2 µM [rising, single point]
30 | COC(=O)N/N=C/c1ccc(OS(=O)(=O)c2ccc(C)cc2)c(OC)c1 | 35.5 µM [rising, single point] | 35.5 µM [rising, single point]
31 | COc1cc(/C=C/c2nc(-c3ccccc3O)n[nH]2)cc(OC)c1OC | – | 25.1 µM [rising, single point]
32 | Cc1nn(C)c2c1c(C(F)(F)F)cc(=O)n2C(C)C(=O)NCCc1ccccc1 (stereo not given) | – | 31.6 µM [rising, single point]
33 | Brc1ccc(C2=CC(c3cccs3)n3ncnc3N2)cc1 (stereo not given) | – | 0.501 µM [falling, single point]
34 | Cc1cc(C)c(O)c(-c2cc(C(=O)Nc3ccc(S(=O)(=O)N4CCOCC4)cc3)[nH]n2)c1 | 22.4 µM [falling, single point] | 25.1 µM [falling, single point]
35 | COC(=O)CN(c1ccccc1F)S(=O)(=O)c1ccc(C)cc1 | 0.0224 µM [rising, full curve, poor fit] | 0.02 µM [rising, full curve, poor fit]
36 | Cc1cc(C)c2nc(NNC(=O)c3ccc(S(=O)(=O)N4CCCCC4)cc3)sc2c1 | – | 12.6 µM [rising, partial curve]
37 | NNC(=S)NCCc1ccccc1 | 8.91 µM [falling, partial curve] | 11.2 µM [falling, partial curve, poor fit]
38 | COc1ccc(C)cc1NC(=O)c1cc(S(=O)(=O)N2CCC(C)CC2)cn1C | 5.01 µM [rising, full curve, poor fit] | 7.08 µM [rising, partial curve, poor fit]
39 | O=C(COC(=O)C12CC3CC(CC(C3)C1)C2)Nc1nc2c(F)c(F)c(F)cc2s1 | 11.2 µM [rising, single point] | 12.6 µM [rising, single point]
40 | CCSc1nc(-c2ccccc2)nc2c1CCCC2 | 0.0178 µM [falling, full curve, poor fit] | 0.00891 µM [falling, full curve, poor fit]
41 | O=C(/C=C/c1cn(-c2ccccc2)nc1-c1cccnc1)c1ccco1 | 11.2 µM [falling, partial curve, poor fit] | 14.1 µM [falling, partial curve, poor fit]
42 | COc1ccc(C2CC(C(F)(F)F)n3nc(C(=O)NCc4cn(C)nc4C)c(Cl)c3N2)cc1 (stereo not given) | – | 31.6 µM [rising, single point]
43 | Cc1ccccc1CSCCC(=O)NCCc1ccccc1 | – | 1.78 µM [rising, partial curve, poor fit]
44 | CCc1ccc(NC(=O)C(NS(=O)(=O)c2cccc3nsnc23)c2ccccc2)cc1 (stereo not given) | 35.5 µM [rising, single point] | 31.6 µM [rising, single point]
45 | COC(=O)c1cc(S(=O)(=O)Nc2cccc(S(N)(=O)=O)c2)oc1C | 7.08 µM [falling, full curve, poor fit] | 11.2 µM [falling, partial curve, poor fit]
46 | Cc1ccccc1NC(=S)NC(NC(=O)c1ccco1)C(Cl)(Cl)Cl (stereo not given) | – | 25.1 µM [rising, partial curve, poor fit]
47 | Cc1cccc(NC(=O)c2sc3nc(-c4ccccc4)cn3c2C)c1C | 10 µM [falling, partial curve, poor fit] | –
48 | O=C(CSc1n[nH]c(-c2ccccc2)n1)N1CCN(c2ccccc2F)CC1 | 0.447 µM [rising, single point] | –
49 | O=C(NC(=S)Nc1ccc2c(c1)OCCO2)c1cccc2ccccc12 | 31.6 µM [rising, single point] | 35.5 µM [rising, single point]
50 | Cc1ccccc1CC1(CO)CCCN(C(=O)CCCN2CCCCC2=O)C1 (stereo not given) | 0.112 µM [falling, full curve, poor fit] | –
51 | O=C(O)CC/C(=C\c1cccc(NC(=O)c2ccccc2Cl)c1)c1nc2ccccc2s1 | 22.4 µM [rising, single point] | 20 µM [rising, single point]
52 | COc1ccc(-c2cn3c(n2)sc2cc(C(=O)NC4CCCCCC4)ccc23)cc1 | 17.8 µM [rising, single point] | –
53 | Cc1c(-n2c(SCC(=O)N(C)C3CCS(=O)(=O)C3)nc3ccccc3c2=O)c(=O)n(-c2ccccc2)n1C (stereo not given) | 2.82 µM [falling, full curve, poor fit] | –
